Data from publication PMC8790125.
For at least one entry, the source does not settle the construct or the ends of the probe.

Test system: Rae1 + Nup98 GLEBS
Test: EMSA
Details: recombinant protein

“UUUUUUUUUUUUUU [FAM-labeled 14-mer poly(U) ssRNA]”: binds.
